Experimental data as given in article PMC5626712.

By UniProt entry, the sequences of proteins in these tests, tags left out. Where a name states a change or a piece, a line headed by the entry shows the natural chain unless it says otherwise.
UniProt P01375: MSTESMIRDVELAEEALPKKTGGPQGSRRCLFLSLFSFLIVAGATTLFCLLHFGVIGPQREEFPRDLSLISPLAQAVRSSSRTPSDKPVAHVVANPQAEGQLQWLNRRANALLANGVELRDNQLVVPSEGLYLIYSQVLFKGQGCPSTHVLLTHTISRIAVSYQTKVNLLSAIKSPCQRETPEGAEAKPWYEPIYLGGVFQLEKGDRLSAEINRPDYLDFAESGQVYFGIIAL
UniProt O35235: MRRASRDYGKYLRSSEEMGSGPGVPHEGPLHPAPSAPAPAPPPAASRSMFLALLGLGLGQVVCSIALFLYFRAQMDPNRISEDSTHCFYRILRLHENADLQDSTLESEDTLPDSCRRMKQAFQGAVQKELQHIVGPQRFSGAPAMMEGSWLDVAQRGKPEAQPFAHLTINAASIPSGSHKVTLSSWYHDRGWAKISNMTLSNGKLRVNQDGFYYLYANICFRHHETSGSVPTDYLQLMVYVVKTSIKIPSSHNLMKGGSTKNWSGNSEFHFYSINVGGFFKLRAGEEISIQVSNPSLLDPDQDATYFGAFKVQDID

Experiments:
[1] = target: T1, His-tagged PG-Bgn (biglycan proteoglycan form, with GAG chains) (UniProt P21810); test: ELISA; solid-phase binding assay: bait bound to nickel-coated or anti-FLAG M2-coated plates (2 h, 37 °C), blocked with 0.1–1% BSA/TBS, increasing concentrations of prey at 4 °C overnight, prey detected with primary antibody and HRP secondary, read at 450 nm; both purified
T1 sequence (chain, GAG chains (GAG-chain supplemented form of Bgn)): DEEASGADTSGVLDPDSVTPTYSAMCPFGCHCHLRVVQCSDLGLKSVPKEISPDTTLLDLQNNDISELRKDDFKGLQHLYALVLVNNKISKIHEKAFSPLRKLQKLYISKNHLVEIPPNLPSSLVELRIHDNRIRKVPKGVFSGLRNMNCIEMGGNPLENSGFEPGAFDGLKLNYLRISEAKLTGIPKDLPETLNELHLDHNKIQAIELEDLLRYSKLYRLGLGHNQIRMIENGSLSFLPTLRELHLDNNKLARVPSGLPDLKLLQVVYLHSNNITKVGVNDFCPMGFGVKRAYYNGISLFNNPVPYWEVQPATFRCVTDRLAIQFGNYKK

[2] = target: T2, C-terminal MYC/DDK Fmod (fibromodulin) (UniProt Q06828); test: as above
T2 sequence: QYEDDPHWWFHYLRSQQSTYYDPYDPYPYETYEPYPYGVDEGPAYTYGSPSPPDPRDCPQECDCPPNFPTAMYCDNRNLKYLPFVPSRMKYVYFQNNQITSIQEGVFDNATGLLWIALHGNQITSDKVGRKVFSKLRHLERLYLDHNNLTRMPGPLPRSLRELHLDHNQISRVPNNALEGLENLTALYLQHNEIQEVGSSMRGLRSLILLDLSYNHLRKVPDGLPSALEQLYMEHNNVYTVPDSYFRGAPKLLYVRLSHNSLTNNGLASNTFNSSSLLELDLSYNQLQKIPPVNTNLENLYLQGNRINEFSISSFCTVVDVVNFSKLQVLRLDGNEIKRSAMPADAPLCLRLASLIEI

[3] = target: T3, Bgn core protein (UniProt P21810); test: as above
T3 sequence: T1 sequence (chain, GAG chains (GAG-chain supplemented form of Bgn))

[4] = target: T3, Bgn core protein; test: pull-down; called coIP by the paper: constant His-tagged bait incubated with increasing concentrations of prey for 5 h at RT, bound to nickel-charged His-Bind resin at 4 °C overnight, washed, eluted by boiling, prey detected by western blot; both purified

binding [1]	binding [2]	binding [3]	binding [4]	Substance
binds	binds	binds	binds	Tumor necrosis factor alpha (TNFα), used as prey (added in increasing concentrations) (from UniProt P01375) (ligand)
binds	binds	–	–	Receptor activator of NF-κB ligand (RANKL) (from UniProt O35235)

These are yes or no findings as the source states them, for the method shown. Binding calls can cover weak binding; strength is not graded here. For part of these data: Sequences can lack the tags named with a protein. For part of these data: In cells and extracts the contact can be indirect.
